Where “and” joins values, the source holds several entries; their conditions need not be identical. Equal values may be shown once. Where a name gives a salt, the structure may show the parent alone. ± gives the standard deviation of the averaged measurements. Over roughly 1,800 compounds, “GFP- (p16Ink4a-) cell count relative to negative-control wells” has its median near 0.99; the lowest 2% begin near 0.5. Some of the results follow.
system: mouse p16Ink4a+/- lung fibroblasts (INKBRITE, bleomycin-injured); test: GFP- (p16Ink4a-) cell count relative to negative-control wells (fold of vehicle); higher = more p16Ink4a- cells surviving; conditions: 1 µM; 3 days

SMILES | GFP-
CC(C)c1cc(-c2nnc(O)n2-c2ccc3c(ccn3C)c2)c(O)cc1O [Ganetespib] | 0.538
OC[C@H]1O[C@@H](n2cnc3c(O)ncnc32)[C@H](O)[C@@H]1O [Inosine] | 0.949
CC1=NC(N)=C(C(=O)OC2CN(C(c3ccccc3)c3ccccc3)C2)C(c2cccc([N+](=O)[O-])c2)/C1=C(/O)OC(C)C (centres undefined) [Azelnidipine] | 1.11
C=CCc1ccc(O)c(-c2cc(CC=C)ccc2O)c1 [Magnolol] | 0.993
Cc1coc2c1C(=O)C(=O)c1c-2ccc2c1CCCC2(C)C [Tanshinone IIA] | 1.21
Oc1nc(-c2ccc(C(F)(F)F)cc2)nc2c1CSCC2 | 0.911
CCN1CCN(Cc2ccc(-c3cc4c(N[C@H](C)c5ccccc5)ncnc4[nH]3)cc2)CC1 | 0.941
COc1cc(Br)c(Nc2nc(-c3c(C)nc4ncccn34)cs2)c(Br)c1 | 0.6
CN1CCN2c3ncccc3Cc3ccccc3C2C1 (centres undefined) [Mirtazapine] | 0.905
NC1(c2ccc(-c3nc4ccn5c(O)nnc5c4cc3-c3ccccc3)cc2)CCC1 | 0.82
CN1CCc2c(c3ccccc3n2Cc2ccc(C(=O)NO)cc2)C1 [Tubastatin A HCl] | 0.854 and 0.999
C[C@@H]1CCN(C(=O)CC#N)C[C@@H]1N(C)c1ncnc2[nH]ccc12 [Tofacitinib] | 0.889 and 0.806
CNC(=O)c1ccc(C)c(-n2c(C)cc(OCc3ccc(F)cc3F)c(Br)c2=O)c1 | 0.988
O=C(NCCS(=O)(=O)c1ccc(C(F)(F)F)cn1)c1ccc(Cl)cc1 | 1.01
CNC1CCCN(c2c(F)cc3c(=O)c(C(=O)O)cn(C4CC4)c3c2OC)C1 (centres undefined) [Balofloxacin] | 0.875
Cc1cc(Cn2cnc3c2C[C@@H](C(=O)O)N(C(=O)C(c2ccccc2)c2ccccc2)C3)ccc1N(C)C | 1.16
NS(=O)(=O)C#Cc1ccccc1 [Pifithrin] | 1.2
C/C(O)=C(\C#N)C(=O)Nc1ccc(C(F)(F)F)cc1 [Teriflunomide] | 0.938
CCOc1cc2ncc(C#N)c(Nc3ccc(F)c(Cl)c3)c2cc1NC(=O)/C=C/CN(C)C [Pelitinib] | 0.891
O=C(c1ccccc1)c1ccc2n1CCC2C(=O)O (centres undefined) [Ketorolac] | 1.03
CC1=CC(=O)c2ccccc2C1=O [Menadione] | 1.02

Part of the list above in order of number of heavy atoms, descending.
SMILES | GFP-
Cc1cc(Cn2cnc3c2C[C@@H](C(=O)O)N(C(=O)C(c2ccccc2)c2ccccc2)C3)ccc1N(C)C | 1.16
CNC1CCCN(c2c(F)cc3c(=O)c(C(=O)O)cn(C4CC4)c3c2OC)C1 (centres undefined) [Balofloxacin] | 0.875
CC1=CC(=O)c2ccccc2C1=O [Menadione] | 1.02

Later entries

SMILES | GFP-
COc1cc(N2CCC(N3CCN(C)CC3)CC2)ccc1Nc1ncc(Cl)c(Nc2ccccc2S(=O)(=O)C(C)C)n1 | 1.03
CCS(=O)(=O)c1cccc(-c2cc(C(=O)NC3CCN(C)CC3)c(C)c3[nH]c4ncc(C)cc4c23)c1 | 0.945 ± 0.063
CNC(=O)c1cc(Oc2ccc(NC(=O)Nc3cc(C(C)(C)C)nn3-c3ccc4ncccc4c3)c(F)c2)ccn1 [Rebastinib] | 1
CCN1CC(CCN2CCOCC2)C(c2ccccc2)(c2ccccc2)C1=O (centres undefined) [Doxapram] | 1.1
N=C(N)NS(=O)(=O)c1ccc(N)cc1 [Sulfaguanidine] | 0.912
C[C@]12CC[C@H](O)CC1=CCC1C2CC[C@]2(C)C(n3cnc4ccccc43)=CCC12 (some centres undefined) [Galeterone] | 1.11
COc1ccc(-c2ccc3c(N4CCOC[C@@H]4C)nc(N4CCOC[C@@H]4C)nc3n2)cc1CO | 0.537
c1cnc2cc3c(cc2n1)C1CNCC3C1 [Varenicline Tartrate] | 0.907
CC1CNc2c(cccc2S(=O)(=O)N[C@@H](CCCN=C(N)N)C(=O)N2CC[C@@H](C)C[C@@H]2C(=O)O)C1 (some centres undefined) [Argatroban] | 1.09
C[C@H](CCC(=O)O)[C@H]1CC[C@H]2[C@@H]3C[C@H](O)[C@@H]4C[C@H](O)CC[C@]4(C)[C@H]3CC[C@]12C [Hyodeoxycholic acid (HDCA)] | 0.901
C[C@@H](CN1CC(=O)NC(=O)C1)N1CC(=O)NC(=O)C1 [Dexrazoxane] | 0.899
O=C1c2c(O)cccc2[C@H]([C@@H]2O[C@H](CO)[C@@H](O)[C@H](O)[C@H]2O)c2cc(CO)cc(O)c21 [Aloin] | 0.815
O=C(Nc1cccc(Cl)c1)c1ccccn1 | 0.899
O=C1NC(=O)/C(=C/c2ccc3nccc(-c4ccncc4)c3c2)S1 | 0.686
Cc1ccc2c(c1)C(=O)[C@]1(O)CCN(c3ccccc3)C1=N2 [(S)-blebbistatin] | 0.867
Cc1ncc([N+](=O)[O-])n1CC(C)O (centres undefined) [Secnidazole] | 1.16
C[C@@H]1O[C@@H](O[C@H]2[C@H](Oc3cc(O)c(C(=O)CCc4ccc(O)cc4)c(O)c3)O[C@H](CO)[C@@H](O)[C@@H]2O)[C@H](O)[C@H](O)[C@H]1O [Naringin Dihydrochalcone] | 1.01
NC(=O)c1ncn([C@@H]2O[C@H](CO)[C@@H](O)[C@@H]2O)c1O [Mizoribine] | 1.12
CS(=O)(=O)N1CCc2c(-c3cnc(N)nc3)nc(N3CCOCC3)nc21 | 0.715
CN1CCN(C(=O)c2cc3cc(Cl)ccc3[nH]2)CC1 | 1.05
O=c1cc(-c2ccc(O)c(O)c2)oc2cc(O)cc(O)c12 [Luteolin] | 0.833

Quoted from the listing:
CC1CNc2c(cccc2S(=O)(=O)N[C@@H](CCCN=C(N)N)C(=O)N2CC[C@@H](C)C[C@@H]2C(=O)O)C1 (some centres undefined) [Argatroban] | GFP-: 1.09
O=C(Nc1cccc(Cl)c1)c1ccccn1 | GFP-: 0.899

Additional compounds.

SMILES | GFP-
Cc1cc(C)nc(NS(=O)(=O)c2ccc(N)cc2)n1 [Sulfamethazine] | 0.853
Cn1c(=O)cc(N2CCC[C@@H](N)C2)n(Cc2cc(F)ccc2C#N)c1=O [Trelagliptin] | 0.941
CN1CCN(CCOc2cc(OC3CCOCC3)c3c(Nc4c(Cl)ccc5c4OCO5)ncnc3c2)CC1 [Saracatinib] | 0.812
c1ccc(NCc2ccc(CNc3ccccn3)cc2)nc1 | 1.06
O=C(Nc1cc(C(F)(F)F)ccc1N1CCCCC1)c1ccncc1 | 1.17
CO[C@H]1C[C@@H]2CC[C@@H](C)[C@@](O)(O2)C(=O)C(=O)N2CCCC[C@H]2C(=O)O[C@H]([C@H](C)C[C@@H]2CC[C@@H](O)[C@H](OC)C2)CC(=O)[C@H](C)/C=C(\C)[C@@H](O)[C@@H](OC)C(=O)[C@H](C)C[C@H](C)/C=C/C=C/C=C/1C [Rapamycin] | 0.71
Cc1cc(C)c2c(c1)[C@@H](N(Cc1cc(C(F)(F)F)cc(C(F)(F)F)c1)c1nnn(C)n1)CCCN2C[C@H]1CC[C@H](C(=O)O)CC1 [Evacetrapib] | 0.993
Cc1ccc(N(CC2=NCCN2)c2cccc(O)c2)cc1 [Phentolamine] | 0.958
COc1cc(-c2cc(-c3cccc(O)c3)cnc2N)cc(OC)c1OC | 0.951
O=c1cc(N2CCOCC2)oc2c(-c3cccc4c3sc3ccccc34)cccc12 | 0.967
Cc1nc(N)sc1-c1ccnc(Nc2ccc(N3CCOCC3)cc2)n1 | 0.57 ± 0.078
O=c1ccc2ccc(O)c(O)c2o1 [Daphnetin] | 1.02
O=c1ccc2ccccc2o1 | 1.09
Cc1nc(C(=O)NCC(=O)O)c(O)c2ccc(Oc3ccccc3)cc12 | 0.913 ± 0.055
CC(C)n1c(/C=C/[C@@H](O)C[C@@H](O)CC(=O)O)c(-c2ccc(F)cc2)c2ccccc21 [Fluvastatin] | 0.656
COc1ccc([C@H]2CNC(=O)C2)cc1OC1CCCC1 [(S)-Rolipram] | 0.954
OCCn1cc(-c2ccc3c(c2)CC/C3=N\O)c(-c2ccncc2)n1 | 1.28
N#CC(c1ccc(Cl)cc1)c1c(Cl)cc(-n2ncc(=O)[nH]c2=O)cc1Cl (centres undefined) [Diclazuril] | 1.1
CCCCc1ncc(/C=C(\Cc2cccs2)C(=O)O)n1Cc1ccc(C(=O)O)cc1 [Eprosartan] | 0.961
OCc1ccccc1O[C@@H]1O[C@H](CO)[C@@H](O)[C@H](O)[C@H]1O [Salicin] | 0.937
COc1cc(OC)c(NC(=O)Nc2cc(C)on2)cc1Cl | 1.01

SMILES | GFP-
COc1cc(NC(=O)c2ccccn2)ccc1Cl | 1.08
CC(C)(CO)[C@@H](O)C(=O)NCCC(=O)O [Pantothenic Acid] | 0.992
Cc1ccc(S(=O)(=O)Cc2nc(-c3ccc(C(=O)NCc4cccnc4)cc3)oc2C)cc1 | 0.921
FC(F)(F)c1ccc(/C=C/c2nc(COc3ccc(CCCCn4ccnn4)cc3)co2)cc1 [Mubritinib] | 1.02
O=C(O)P(=O)(O)O [Foscarnet] | 1.06
Nc1ccn([C@@H]2O[C@H](CO)[C@@H](O)[C@H]2O)c(=O)n1 [Cytidine] | 0.904
COc1cc(NC(=O)c2ccc(-c3ccc(Cl)cc3)o2)cc(OC)c1 | 1.02
CC1Cc2ccccc2N1NC(=O)c1ccc(Cl)c(S(N)(=O)=O)c1 (centres undefined) [Indapamide] | 0.939
Nc1nc(O)c2ncn(COCCO)c2n1 [Aciclovir] | 0.983
Cc1ccc(=O)n(-c2ccccc2)c1 [Pirfenidone] | 1.14
CC1(C)CCC2=C(O1)c1ccccc1C(=O)C2=O [beta-Lapachone] | 1.08
CCc1cccc(CC)c1NC(=O)N1Cc2[nH]nc(NC(=O)c3ccc(N4CCN(C)CC4)cc3)c2C1 | 1.02 ± 0.27
CCOc1ccccc1O[C@H](c1ccccc1)[C@H]1CNCCO1 [Reboxetine] | 1.08
COc1ccc(-n2nc(C(N)=O)c3c2C(=O)N(c2ccc(N4CCCCC4=O)cc2)CC3)cc1 [Apixaban] | 0.895
CCOC(=O)[C@H](CCc1ccccc1)N[C@H]1CCc2ccccc2N(CC(=O)O)C1=O [Benazepril] | 1.01
COc1ccc(-c2nc(N3CCOCC3)c3sc(CN(C)c4ncc(C(=O)NO)cn4)cc3n2)cn1 [Fimepinostat] | 0.491 ± 0.025
CC(C)(C)c1cc(C(C)(C)C)c(NC(=O)c2cnc3ccccc3c2O)cc1O [Ivacaftor] | 1.1
Nc1nc(OCc2cc(Br)cs2)c2[nH]cnc2n1 [Lomeguatrib] | 1.02 ± 0.11
C=CC(=O)Nc1cccc(Nc2nc(Nc3ccc(Oc4ccnc(C(=O)NC)c4)cc3)ncc2F)c1 | 0.949
COCCCN1CCC(NC(=O)c2cc(Cl)c(N)c3c2OCC3)CC1 [Prucalopride] | 1.16
NC[C@H](O)c1ccc(O)c(O)c1 [Norepinephrine] | 1.23

Source: the supplement of paper PMC11060735
